Measurements reported in US20210002358A1.
No constants are given. Whether binding was seen depends on the method and setting. Some results given as binding are weak or reduced against the parent protein; the word gives no strength. For some assays here: Sequences can lack the tags named with a protein.

Protein sequences, listed by entry. Tags and fused reporters are not part of them. Lines headed by an entry give the natural chain unless they say otherwise; changes in a name come on top. Chains listed by the source or under a name are the forms on record and can include a tag or linker.
PHF-tau (paired helical filament-tau) purified from cortex of an Alzheimer patient (P10636, form named): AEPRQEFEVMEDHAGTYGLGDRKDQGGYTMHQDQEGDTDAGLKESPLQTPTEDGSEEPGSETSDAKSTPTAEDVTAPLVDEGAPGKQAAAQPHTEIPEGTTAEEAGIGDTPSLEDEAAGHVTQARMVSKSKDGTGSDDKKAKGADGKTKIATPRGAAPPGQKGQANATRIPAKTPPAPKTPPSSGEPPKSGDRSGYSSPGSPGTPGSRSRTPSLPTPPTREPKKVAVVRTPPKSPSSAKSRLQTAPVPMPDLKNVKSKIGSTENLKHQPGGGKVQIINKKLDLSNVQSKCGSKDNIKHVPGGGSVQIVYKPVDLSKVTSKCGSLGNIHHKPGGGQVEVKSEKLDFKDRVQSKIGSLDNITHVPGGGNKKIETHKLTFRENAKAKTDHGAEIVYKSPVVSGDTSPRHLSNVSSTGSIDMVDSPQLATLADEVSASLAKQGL

Assays:
[1] = molecular target: PHF-tau (paired helical filament-tau) purified from cortex of an Alzheimer patient (human) (UniProt P10636); assay: SPR
[2] = molecular target: PHF-tau (paired helical filament-tau) purified from cortex of an Alzheimer patient (human) (UniProt P10636); assay: SPR, antibody injected at 75, 15, 3 and 0.6 nM over PHF-tau
[3] = molecular target: PHF-tau (paired helical filament-tau) purified from cortex of an Alzheimer patient (human) (UniProt P10636); assay: SPR sensorgrams, 75, 15, 3 and 0.6 nM
[4] = molecular target: PHF-tau (paired helical filament-tau) purified from cortex of an Alzheimer patient (human) (UniProt P10636); assay: direct ELISA, hybridoma supernatant on 25 ng/well coated PHF-tau
[5] = molecular target: soluble tau (control tau, recombinant 2N4R tau, SEQ ID NO: 31) (human) (UniProt P10636); assay: ELISA, full-length Tau coated at 1 ng/mL or 10 ng/mL
[6] = molecular target: soluble tau (control tau, recombinant 2N4R tau, SEQ ID NO: 31) (human) (UniProt P10636); assay: direct ELISA on coated 2N4R Tau (10 ng/mL and 1 ng/mL), anti-mouse HRPO detection
[7] = molecular target: soluble tau (control tau, recombinant 2N4R tau, SEQ ID NO: 31) (human) (UniProt P10636); assay: ELISA, 2N4R Tau coated at 10 ng/mL or 1 ng/mL
[8] = molecular target: soluble tau (control tau, recombinant 2N4R tau, SEQ ID NO: 31) (human) (UniProt P10636); assay: direct ELISA, hybridoma supernatant on 10 ng/well coated control tau
[9] = molecular target: PHF-tau (paired helical filament-tau) purified from cortex of an Alzheimer patient (human) (UniProt P10636); assay: SPR, Fab injected at 75, 15, 3 and 0.6 nM over PHF-tau

Measured: binding

B1: PT82 mAb (recombinantly expressed, mouse IgG2a/kappa) (antibody, V domains shown)
VH: EVKLEESGGGLVQPGGSMKLSCVASGFTFSNYWMNWIRQSPEKGLEWVAQIRLQSDNYATRYAESVKGRFTISRDESKTSVYLQMNNLRTEDTGIYYCTGGTTYWGQGTLVTVSA
VL: DIVMTQSQKFMSTSVGDRVSITCKASQNVGTAVAWYQQKPGQSPKLLIYSASIRYTGVPDRFTGSGSGTDFTLTINYMQSEDLADYFCQQFSSYPYTFGGGTKLEIK
binds: [1] | [2] | [3]

B2: PT82 produced by hybridoma (hybridoma supernatant) (antibody, V domains shown)
VH: B1 VH
VL: B1 VL
binds: [4] | [5] | [6] | [7] | [8]

B3: PT82 Fab (chimeric, mouse variable domains on human IgG1/kappa constant domains, His tag) (Fab, V domains shown)
VH: B1 VH
VL: B1 VL
binds: [1] | [9] | [3]
